From PMC12040169 (PLOS Biology, 2025)
The list shows a part of the results.

Tested on: T1, CTL2-GFP (C. trachomatis L2/434/Bu, GFP-expressing)
T1 construct: L2/434/Bu, GFP-expressing
Parameters: species or system HeLa; Intracellular C. trachomatis growth in HeLa cells, bulk GFP fluorescence relative to DMSO
Conditions: bulk GFP, single well; 28.5 h, 10 µM; inhibitor

Row | Structure (SMILES) | % of control remaining
1 | Cc1ccc(-c2ncc(OCCN3CCCC3=O)nc2N)c(C)c1 [CBK145127] | 191.652%
2 | COc1ccc([C@H]2CN(Cc3ccccc3)C[C@@H]2NC(=O)c2ccco2)cc1OC [CBK286478] | 105.919%
3 | O=C(c1[nH]c2ccccc2c1NS(=O)(=O)/C=C/c1ccccc1)N1CCOCC1 [CBK050068] | 76.9495%
4 | Cn1cc(CCNC(=O)N2CCN(Cc3ccsc3)CC2)cn1 [CBK305692] | 108.239%
5 | O=C(NCC(c1ccccc1)c1ccccc1)N1CCCCC1CO (stereo not drawn) [CBK156186] | 100.739%
6 | CN(C)S(=O)(=O)N1CCN(Cc2ccccc2)CC1 [CBK263638] | 131.118%
7 | CC1CCc2noc(C3CCN(C(=O)c4ccnn4C)CC3)c2C1 (stereo not drawn) [CBK285232] | 106.416%
8 | COc1ccc(NC(=N)Nc2nc(=O)cc(CSc3nc4ccccc4s3)[nH]2)cc1 [CBK266256] | 204.662%
9 | O=C(O)CCc1ccc(-c2ccc(F)cc2)n1-c1cc(Cl)ccc1O [CBK131891] | 80.0383%
10 | Cc1c(C)n(Cc2ccco2)c2ncnc(NCC(=O)O)c12 [CBK307563] | 102.652%
11 | c1ccc(CN2CCC[C@H]2c2nc(-c3ccc(-c4cncnc4)nc3)no2)cc1 [CBK288891] | 126.816%
12 | COc1cc2c(cc1S(N)(=O)=O)C(=O)CCC2 [CBK010234] | 151.658%
13 | CC(C)Nc1nccnc1OCCOc1cccc(O)c1 [CBK115878] | 106.487%
14 | O=C(NC1CCN(CCOc2ccccc2F)CC1)c1cccs1 [CBK305737] | 103.39%
15 | CN1C(=O)COc2ccccc2CCCC[C@@H]2[C@H]1CCCN2C(=O)CCn1ccnc1 [CBK292150] | 137.154%
16 | CN1CCN(C(=O)c2ccc(-c3ccoc3)nc2)CC1 [CBK156280] | 126.91%
17 | COc1ccccc1N(CCCc1cc(C(F)(F)F)cc(C(F)(F)F)c1)C(=O)C(N)C(C)C (stereo not drawn) [CBK001004T] | 78.4973%
18 | OC(CN1CCN(Cc2ccccc2)CC1)Cn1c2ccc(Br)cc2c2cc(Br)ccc21 (stereo not drawn) [CBK262203] | 44.6429%
19 | O=C(NCCOc1cccc(Cl)c1Cl)c1ccccc1-c1ccccc1 [CBK267390] | 101.311%
20 | NS(=O)(=O)c1ccc(NC(=S)NCCN2CCOCC2)cc1 [CBK265818] | 91.3704%
21 | c1ccc2c(c1)oc1cccc(-c3cc(NCCc4c[nH]cn4)ncn3)c12 [CBK037708] | 95.9078%
22 | O=C(Cn1c(=O)c2nncn2c2ncccc21)NC1CCCCCC1 [CBK288600] | 139.256%
23 | N#C/C(=C/c1ccc(Sc2ccc(Cl)cc2)o1)c1ccc(C(=O)O)cc1 [CBK268996] | 131.622%
24 | CCOC(=O)C1=NOC2COC3(CCN(c4ncccn4)CC3)OCC12 (stereo not drawn) [CBK018602] | 100.867%
25 | Cc1csc(N2CCC(NC3COc4ccc(F)cc4C3)CC2)n1 (stereo not drawn) [CBK304751] | 117.05%
26 | Fc1ccc(-c2cnn(-c3ccc(OC(F)(F)F)cc3)n2)c(F)c1 [CBK112740] | 114.896%

Row | Structure (SMILES) | % of control remaining
27 | CC(C)C(=O)Nc1ccc(-c2ccsc2)c2ccccc12 [CBK083758] | 107.653%
28 | N=c1n(CCN2CCCCC2)c2ccccc2n1CC(=O)c1cccc([N+](=O)[O-])c1 [CBK263481B] | 100%
29 | N#Cc1ccccc1N1C(=O)c2cccc([N+](=O)[O-])c2C1=O [CBK115322] | 88.9919%
30 | O=C(Nc1ccc(O)cc1)c1ccc(N2C(=O)c3cccc([N+](=O)[O-])c3C2=O)cc1 [CBK262600] | 113.792%
31 | Clc1ccc(CN2CCN(Cc3ccc(Cl)cc3)C2c2ccncc2)cc1 [CBK265207] | 148.395%
32 | O=C(O)CSc1c(NC(=O)c2ccccc2)sc2c1CCCC2 [CBK261062] | 108.88%
33 | O=C(Nc1ccc(S(=O)(=O)NCc2ccncc2)cc1)c1ccccc1Cl [CBK269664] | 88.7283%
34 | CCN1CCN(CC(=O)C(C#N)c2ccccc2)CC1 (stereo not drawn) [CBK269423] | 167.459%
35 | Cc1oc2nc(CSc3ccc4ccccc4c3)[nH]c(=O)c2c1C(=O)O [CBK296645] | 126.237%
36 | CCOC(=O)CSc1c2cc3c(nc2nc(=O)n1Cc1ccccc1)CC(C)(C)OC3 [CBK018608] | 120.254%
37 | Nc1ncc(-c2ccco2)nc1NCC1CCOCC1 [CBK063825] | 141.426%
38 | O=C(c1nc2ccccc2[nH]1)N1CCc2ccccc21 [CBK200411] | 125.393%
39 | N#CC1CCCc2c1[nH]c1ccccc21 (stereo not drawn) [CBK098397] | 131.453%
40 | c1ccc2c(c1)N1CCCN=C1N2CCN1CCOCC1 [CBK278300C] | 107.751%
41 | CCN1CCN(C(=O)c2c(C)noc2C)CC1 [CBK200374] | 106.688%
42 | C=CCOc1ccc(OCCN2CC(C)OC(C)C2)cc1 (stereo not drawn) [CBK269646C] | 116.83%
43 | O=C(O)c1ccccc1OCCCCOc1cccc2cccnc12 [CBK264136] | 139.63%
44 | CNC(=O)C1(Cc2ccc(-c3ccccc3)cc2)CCN(C(=O)Cc2ccccc2)CC1 [CBK285764] | 127.179%
45 | CC(=O)N[C@H](Cc1c[nH]c2ccccc12)C(=O)N1CCN(c2ccc(C)cc2)CC1 [CBK091333] | 114.49%
46 | CC(C)NC(=O)NC[C@H]1C[C@@H]2CCN1C[C@@H]2c1cc(-c2ccc(F)cc2)nn1C [CBK289111] | 128.313%
47 | CN(C(=O)Cn1cccn1)c1nc2c(s1)CC(c1ccccc1)CC2 (stereo not drawn) [CBK305173] | 77.9105%
48 | CCC1=C(c2ccc(Cl)cc2)CCC(C(=O)NCCCN(C)C)C1C (stereo not drawn) [CBK012578] | 52.28%
49 | Cc1ccc(S(=O)(=O)Nc2ccc(Nc3cc(-c4ccsc4)ncn3)cc2)cc1 [CBK037792] | 134.16%
50 | Cc1cc(F)ccc1C(=O)NCC1CCN(c2cnn(C)c(=O)c2)C1 (stereo not drawn) [CBK307097] | 92.3583%
51 | c1coc(-c2nccnc2NCc2ccncc2)c1 [CBK038059] | 119.476%

Some of the entries above, reformatted.
Row,Structure (SMILES),% of control remaining
31,Clc1ccc(CN2CCN(Cc3ccc(Cl)cc3)C2c2ccncc2)cc1 [CBK265207],148.395%
32,O=C(O)CSc1c(NC(=O)c2ccccc2)sc2c1CCCC2 [CBK261062],108.88%
